Data as given in PubChem BioAssay AID1224830 (NIAID, 2016)
This is an unselected part of about 18,000 reagents tested. In the full data, about 2,900 (16%) got an active call. 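Calls are made per well; low scores hint the gene aids the LPS response, high scores that it dampens it.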 A number with no mark means an inactive call. Repeated entries: four replicate wells of each siRNA pool.

Screen: 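Regulators of TLR4 signalling towards TNF-alpha in macrophage-like cells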 (primary screen)
Cells: human THP-1 monocytic leukaemia cells, TNF dual-luciferase reporter clone, PMA-differentiated to macrophage-like cells
Knock-down reagent: siRNA pool against human genes, 50 nM
Timing: LPS for 4 h, given about 3 days after siRNA transfection
Conditions: bacterial LPS (TLR4 ligand), 10 ng/ml
Read-out: 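TNF firefly reporter luminescence divided by renilla, normalised to the plate median, then turned into a robust z-score for each replicate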
Direction: TNF reporter robust z-score: higher = stronger TNF reporter response to LPS
Active means: 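a well is active when its z-score exceeds 2.8 or falls below -1.5; control wells carry no call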

The opening 4 records, to show the layout:
| gene | TNF reporter robust z-score |
| --- | --- |
| DNAJC7 (DnaJ heat shock protein family (Hsp40) member C7) | -0.96 |
| DNAJC7 (DnaJ heat shock protein family (Hsp40) member C7) | 1.29 |
| DNAJC7 (DnaJ heat shock protein family (Hsp40) member C7) | 0.01 |
| DNAJC7 (DnaJ heat shock protein family (Hsp40) member C7) | -0.59 |

Main list, repeating the preview:
| gene | TNF reporter robust z-score |
| --- | --- |
| DNAJC7 (DnaJ heat shock protein family (Hsp40) member C7) | -0.96 |
| DNAJC7 (DnaJ heat shock protein family (Hsp40) member C7) | 1.29 |
| DNAJC7 (DnaJ heat shock protein family (Hsp40) member C7) | 0.01 |
| DNAJC7 (DnaJ heat shock protein family (Hsp40) member C7) | -0.59 |
| HECTD1 (HECT domain E3 ubiquitin protein ligase 1) | 2.49 |
| HECTD1 (HECT domain E3 ubiquitin protein ligase 1) | 1.64 |
| HECTD1 (HECT domain E3 ubiquitin protein ligase 1) | 0.12 |
| HECTD1 (HECT domain E3 ubiquitin protein ligase 1) | 1.62 |
| MYH1 (myosin heavy chain 1) | 1.27 |
| MYH1 (myosin heavy chain 1) | 3.82 (active) |
| MYH1 (myosin heavy chain 1) | 2.97 (active) |
| MYH1 (myosin heavy chain 1) | 1.21 |
| RAP1GAP (RAP1 GTPase activating protein) | 0.66 |
| RAP1GAP (RAP1 GTPase activating protein) | 0.4 |
| RAP1GAP (RAP1 GTPase activating protein) | 2.1 |
| RAP1GAP (RAP1 GTPase activating protein) | 0.97 |
| WASHC2C (WASH complex subunit 2C) | 0.88 |
| WASHC2C (WASH complex subunit 2C) | 1.09 |
| WASHC2C (WASH complex subunit 2C) | -0.71 |
| WASHC2C (WASH complex subunit 2C) | 0.16 |
| GGT5 (gamma-glutamyltransferase 5) | -0.54 |
| GGT5 (gamma-glutamyltransferase 5) | -0.88 |
| GGT5 (gamma-glutamyltransferase 5) | -0.16 |
| GGT5 (gamma-glutamyltransferase 5) | 0 |
| EPB41 (erythrocyte membrane protein band 4.1) | 4.74 (active) |
| EPB41 (erythrocyte membrane protein band 4.1) | -1.29 |
| EPB41 (erythrocyte membrane protein band 4.1) | -0.23 |
| EPB41 (erythrocyte membrane protein band 4.1) | 0.69 |
| AP3S1 (adaptor related protein complex 3 subunit sigma 1) | -0.02 |
| AP3S1 (adaptor related protein complex 3 subunit sigma 1) | -0.19 |
| AP3S1 (adaptor related protein complex 3 subunit sigma 1) | 0.76 |
| AP3S1 (adaptor related protein complex 3 subunit sigma 1) | -0.1 |
| ZNF687 (zinc finger protein 687) | 2.08 |
| ZNF687 (zinc finger protein 687) | 2.8 (active) |
| ZNF687 (zinc finger protein 687) | 1.11 |
| ZNF687 (zinc finger protein 687) | 2.09 |
| DDX17 (DEAD-box helicase 17) | -0.92 |
| DDX17 (DEAD-box helicase 17) | 2.36 |
| DDX17 (DEAD-box helicase 17) | -0.17 |
| DDX17 (DEAD-box helicase 17) | 0.01 |
| GCNT3 (glucosaminyl (N-acetyl) transferase 3, mucin type) | 0.93 |
| GCNT3 (glucosaminyl (N-acetyl) transferase 3, mucin type) | 0.62 |
| GCNT3 (glucosaminyl (N-acetyl) transferase 3, mucin type) | 0.04 |
| GCNT3 (glucosaminyl (N-acetyl) transferase 3, mucin type) | 0.56 |
| CHST3 (carbohydrate sulfotransferase 3) | 3.31 (active) |
| CHST3 (carbohydrate sulfotransferase 3) | 2.51 |
| CHST3 (carbohydrate sulfotransferase 3) | 2.63 |
| CHST3 (carbohydrate sulfotransferase 3) | 3.11 (active) |
